No constants are given. Whether binding was seen depends on the method and setting. Binding can be weak; no strength is given.

The chains are these.
B1: T1 peptide (peptide)
peptide: VGSNSYPHKYNNYEG
modifications: C-terminal amide
B2: S2 peptide (peptide)
peptide: TRYWNPKMKPFIFGA
modifications: C-terminal amide
B3: S2-plus2 peptide (peptide)
peptide: KMKPFIFGARNKVHI
modifications: C-terminal amide

For the experiment, the target named is full-length SlyD from Thermus thermophilus (TtSlyDFL) (Thermus thermophilus). In words: crystal structure; co-crystallisation; protein at 30–60 mg/ml incubated with a threefold excess of peptide; sitting drop, 4 °C, PEG, pH 5.0–8.0; both purified.
Regarding B1, the binding entry was “binds”.
For B2, the binding result was “binds”.
In the case of B3 it was “binds”.

The record behind these values is publication PMC5034536, “Molecular insights into substrate recognition and catalytic mechanism of the chaperone and FKBP peptidyl-prolyl isomerase SlyD” (BMC Biology, 2016).
